Measurements taken from US20230330222A1 (ASCENDO BIOTECHNOLOGY, published 2023).
Results are given in words; binding and its absence hold for the method and conditions named. Some entries that bind do so weakly or less than the wild type.

Chains of the proteins cited; added tags and fusions are not shown. Lines headed by an entry give the natural chain unless they say otherwise; changes in a name come on top. Residues count along the entry.
UniProt O00206, residues 24-631: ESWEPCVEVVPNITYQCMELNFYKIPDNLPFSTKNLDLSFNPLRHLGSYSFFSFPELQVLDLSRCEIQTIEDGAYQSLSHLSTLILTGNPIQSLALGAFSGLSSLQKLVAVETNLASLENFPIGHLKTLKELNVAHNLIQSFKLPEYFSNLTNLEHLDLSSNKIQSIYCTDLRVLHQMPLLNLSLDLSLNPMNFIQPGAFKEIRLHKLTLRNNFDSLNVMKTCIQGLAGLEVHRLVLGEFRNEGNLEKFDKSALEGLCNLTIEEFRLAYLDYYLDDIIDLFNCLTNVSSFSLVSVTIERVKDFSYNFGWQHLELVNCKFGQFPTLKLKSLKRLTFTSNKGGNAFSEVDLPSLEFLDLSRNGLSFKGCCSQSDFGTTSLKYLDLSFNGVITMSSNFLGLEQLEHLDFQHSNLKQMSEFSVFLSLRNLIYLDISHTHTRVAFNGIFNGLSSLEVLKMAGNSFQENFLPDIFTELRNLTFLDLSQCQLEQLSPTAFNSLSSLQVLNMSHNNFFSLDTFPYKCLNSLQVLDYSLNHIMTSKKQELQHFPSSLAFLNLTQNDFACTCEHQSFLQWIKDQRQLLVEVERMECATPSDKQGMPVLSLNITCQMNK
UniProt Q9Y6Y9: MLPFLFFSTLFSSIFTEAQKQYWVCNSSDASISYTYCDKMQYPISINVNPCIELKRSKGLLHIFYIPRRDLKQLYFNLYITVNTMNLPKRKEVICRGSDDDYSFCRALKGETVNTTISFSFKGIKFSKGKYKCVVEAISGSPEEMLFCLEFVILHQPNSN

What was measured:
[1] = target: T1, TLR4/MD2 expressed by THP1/XBlue/MD2/CD14 cells (human) (UniProt O00206+Q9Y6Y9); assay: flow cytometry on THP1/XBlue/MD2/CD14 cells
[2] = target: T2, recombinant TLR4 (toll-like receptor 4) (human, UniProt O00206 24-631, limits assumed); assay: solid phase binding assay, TLR4 coated
T2 construct: also called hTLR4

[3] = target: T2, recombinant TLR4 (toll-like receptor 4); assay: solid phase binding assay, TLR4 coated at 5 ug/ml, anti-TREML1 detection, OD450
[4] = target: T1, TLR4/MD2 expressed by THP1/XBlue/MD2/CD14 cells (human); assay: flow cytometry on THP1/XBlue/MD2/CD14 cells, TREML1 ECD 10 ug/ml, AF647-anti-TREML1 detection

Measured: binding

B1: recombinant TREML1 ECD (human TREM-like transcript-1 extracellular domain) (ligand)
chain: QGIVGSLPEVLQAPVGSSILVQCHYRLQDVKAQKVWCRFLPEGCQPLVSSAVDRRAPAGRRTFLTDLGGGLLQVEMVTLQEEDAGEYGCMVDGARGPQILHRVSLNILPPEEEEETHKIGSLAENAFSDPAGSANPLEPSQDEKSIP
notes: Expressed in E. coli from pET30-TREML1 and purified on Ni-NTA; also called hTREML1; not shown: N-terminal polyhistidine tag from pET30
binds: all assays above
